These are literature values, as cited in article PMC8185074, “Anchor extension: a structure-guided approach to design cyclic peptides targeting enzyme active sites” (Nature Communications, 2021).

Amino acid sequences for entries named in this document (tags omitted). A change or cut given only in a name is not applied to a line headed by its entry.
UniProt O15379: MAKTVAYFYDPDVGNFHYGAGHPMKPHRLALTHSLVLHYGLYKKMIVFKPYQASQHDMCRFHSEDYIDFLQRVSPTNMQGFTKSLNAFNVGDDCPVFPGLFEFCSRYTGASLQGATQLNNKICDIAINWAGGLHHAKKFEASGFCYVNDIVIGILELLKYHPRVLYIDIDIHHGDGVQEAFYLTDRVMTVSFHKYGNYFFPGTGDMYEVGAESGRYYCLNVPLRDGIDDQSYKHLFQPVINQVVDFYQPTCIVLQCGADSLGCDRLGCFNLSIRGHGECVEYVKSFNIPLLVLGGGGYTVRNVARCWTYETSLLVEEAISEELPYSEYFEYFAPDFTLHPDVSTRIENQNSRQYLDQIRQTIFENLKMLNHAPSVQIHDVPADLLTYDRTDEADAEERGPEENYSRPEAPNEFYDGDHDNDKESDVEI

The target of the data set is T1, HDAC3 (Homo sapiens, UniProt O15379).
T1 construct: purchased Reaction Biology Corporation (assay run by the CRO)
Particulars: read-out: HDAC3 inhibitory potency (quantity not named); cited from earlier work.

SMILES strings stand for the structures. pIC50: −log10 of the molar value.

In the case of `CCCCCCCC(=O)SCC/C=C/[C@@H]1CC(=O)NCc2nc(cs2)C2=N[C@@](C)(CS2)C(=O)N[C@@H](C(C)C)C(=O)O1` [Largazole], the pIC50 was about 8.52.
